# Laboratory results: article PMC7862700
# The list shows a part of the results, in another mix than the full data. At the low end of the ranking the order means little.
# Assays:
# Assay in all cases: DAPPL (digital affinity profiling via proximity ligation, sequencing)
# Details in all cases: 10 mM Tris-HCl pH 7.5, 50 mM NaCl, 1 mM DTT, 4% glycerol, room temperature, 30 min; GST-TFs on glutathione beads, 16-mer random dsDNA library, 0.1% …; high values mean tight binding; double strand, one strand shown; scale: fold enrichment (6-mer frequency, TF over GST control)
# [1] = molecular target: T1, ELK1 (UniProt P19419)
# T1 sequence: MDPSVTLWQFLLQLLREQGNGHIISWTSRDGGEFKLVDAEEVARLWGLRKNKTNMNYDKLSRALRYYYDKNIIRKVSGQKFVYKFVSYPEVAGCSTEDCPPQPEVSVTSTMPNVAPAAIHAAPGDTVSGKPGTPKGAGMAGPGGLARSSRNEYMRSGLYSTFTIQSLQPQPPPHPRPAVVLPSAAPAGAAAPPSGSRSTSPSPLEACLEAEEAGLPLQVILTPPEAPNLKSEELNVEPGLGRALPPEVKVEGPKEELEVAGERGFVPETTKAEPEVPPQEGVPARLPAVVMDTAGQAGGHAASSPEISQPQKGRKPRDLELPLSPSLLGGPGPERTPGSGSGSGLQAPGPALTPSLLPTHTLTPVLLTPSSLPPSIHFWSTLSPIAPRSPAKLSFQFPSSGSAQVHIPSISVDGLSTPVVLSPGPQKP
# [2] = molecular target: T2, SPIC (UniProt Q8N5J4)
# T2 sequence: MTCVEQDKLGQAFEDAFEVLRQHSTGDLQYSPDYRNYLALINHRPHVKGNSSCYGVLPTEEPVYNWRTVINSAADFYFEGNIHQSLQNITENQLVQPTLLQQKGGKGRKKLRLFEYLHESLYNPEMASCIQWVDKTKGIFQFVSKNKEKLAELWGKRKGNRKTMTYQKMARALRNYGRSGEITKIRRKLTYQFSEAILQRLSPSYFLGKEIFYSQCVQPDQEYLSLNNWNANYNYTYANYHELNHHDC
# [3] = molecular target: T3, ETS2 (UniProt P15036)
# T3 sequence: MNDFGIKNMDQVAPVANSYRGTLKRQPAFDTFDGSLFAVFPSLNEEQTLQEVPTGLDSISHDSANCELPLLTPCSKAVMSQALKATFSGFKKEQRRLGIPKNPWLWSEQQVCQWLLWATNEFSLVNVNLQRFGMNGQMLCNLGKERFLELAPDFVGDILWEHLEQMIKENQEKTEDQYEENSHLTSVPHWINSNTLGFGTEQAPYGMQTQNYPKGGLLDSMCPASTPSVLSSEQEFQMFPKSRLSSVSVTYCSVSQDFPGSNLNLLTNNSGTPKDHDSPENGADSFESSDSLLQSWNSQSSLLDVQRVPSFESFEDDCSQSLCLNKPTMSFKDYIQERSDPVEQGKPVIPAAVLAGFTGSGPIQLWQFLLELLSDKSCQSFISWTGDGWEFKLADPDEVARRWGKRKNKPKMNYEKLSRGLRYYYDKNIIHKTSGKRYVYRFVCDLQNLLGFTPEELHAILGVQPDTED
# [4] = molecular target: T4, ETV3 (UniProt P41162-2)
# T4 sequence: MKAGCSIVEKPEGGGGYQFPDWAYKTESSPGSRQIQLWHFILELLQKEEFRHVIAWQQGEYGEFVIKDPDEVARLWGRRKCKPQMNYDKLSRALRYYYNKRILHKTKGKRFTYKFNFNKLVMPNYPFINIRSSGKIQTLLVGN
# [5] = molecular target: T5, ELK3 (UniProt P41970)
# T5 sequence: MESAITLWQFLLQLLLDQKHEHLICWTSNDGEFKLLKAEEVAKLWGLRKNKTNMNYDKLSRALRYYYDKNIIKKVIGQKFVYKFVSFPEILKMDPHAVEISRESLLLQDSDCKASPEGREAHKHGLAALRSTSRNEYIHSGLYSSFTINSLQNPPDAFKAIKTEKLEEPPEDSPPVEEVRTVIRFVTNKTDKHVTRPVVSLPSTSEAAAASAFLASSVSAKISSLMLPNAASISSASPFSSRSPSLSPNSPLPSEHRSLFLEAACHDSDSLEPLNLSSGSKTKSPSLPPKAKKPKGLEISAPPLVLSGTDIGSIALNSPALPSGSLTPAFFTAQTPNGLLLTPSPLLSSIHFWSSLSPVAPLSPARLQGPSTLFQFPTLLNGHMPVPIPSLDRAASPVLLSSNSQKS
sequence,measurement,setting,value
TCTGGA,binding signal,[1],0.995
same,binding signal,[2],0.839
same,binding signal,[3],0.971
same,binding signal,[4],1.05
GCGACG,binding signal,[1],0.862
same,binding signal,[5],0.9
same,binding signal,[2],0.953
same,binding signal,[3],0.899
same,binding signal,[4],0.955
ACAAGG,binding signal,[1],0.961
same,binding signal,[2],0.989
same,binding signal,[3],0.946
same,binding signal,[4],0.961
TGGGAA,binding signal,[1],1.08
same,binding signal,[2],1.03
same,binding signal,[3],1.02
same,binding signal,[4],0.979
AGATAT,binding signal,[1],0.981
same,binding signal,[2],0.963
same,binding signal,[3],0.978
same,binding signal,[4],0.981
GGCGTT,binding signal,[1],0.994
same,binding signal,[2],1.08
same,binding signal,[3],0.907
same,binding signal,[4],0.901
TGGGCG,binding signal,[1],0.939
same,binding signal,[2],0.953
same,binding signal,[3],0.82
same,binding signal,[4],0.865
ACGCGA,binding signal,[1],0.849
same,binding signal,[5],0.935
same,binding signal,[2],0.873
same,binding signal,[3],0.818
same,binding signal,[4],0.877
TAAGAG,binding signal,[1],0.901
same,binding signal,[5],0.951
same,binding signal,[2],0.815
same,binding signal,[3],0.834
same,binding signal,[4],0.884
TTAGGA,binding signal,[1],0.936
same,binding signal,[5],0.952
same,binding signal,[2],0.939
same,binding signal,[3],0.996
same,binding signal,[4],0.88
TCGAGA,binding signal,[1],0.643
same,binding signal,[5],0.623
same,binding signal,[2],0.692
same,binding signal,[3],0.587
same,binding signal,[4],0.586
CGAAGA,binding signal,[1],0.825
same,binding signal,[5],0.776
same,binding signal,[2],0.795
same,binding signal,[3],0.824
same,binding signal,[4],0.733
CGGTTA,binding signal,[1],0.988
same,binding signal,[5],1
same,binding signal,[2],0.947
same,binding signal,[3],0.963
same,binding signal,[4],0.964
AGGGAT,binding signal,[1],0.776
same,binding signal,[5],0.796
same,binding signal,[2],0.741
same,binding signal,[3],0.81
same,binding signal,[4],0.784
GCCACC,binding signal,[1],0.942
same,binding signal,[5],0.965
same,binding signal,[2],0.941
same,binding signal,[3],0.959
same,binding signal,[4],0.892
TGGGAC,binding signal,[1],0.954
same,binding signal,[5],0.933
same,binding signal,[2],1
same,binding signal,[3],0.906
same,binding signal,[4],0.945
AGGCTT,binding signal,[1],0.97
same,binding signal,[5],1.05
same,binding signal,[2],0.973
same,binding signal,[3],1.04
same,binding signal,[4],0.972
TCGCGT,binding signal,[1],0.841
same,binding signal,[5],0.997
same,binding signal,[2],0.83
same,binding signal,[3],0.968
same,binding signal,[4],0.996
GGATAA,binding signal,[1],0.835
same,binding signal,[5],0.814
same,binding signal,[2],0.74
same,binding signal,[3],0.835
same,binding signal,[4],0.828
GTGCAC,binding signal,[1],0.922
same,binding signal,[5],0.894
same,binding signal,[2],0.997
same,binding signal,[3],0.898
same,binding signal,[4],0.968
GCCAGA,binding signal,[1],0.634
same,binding signal,[5],0.727
same,binding signal,[2],0.582
same,binding signal,[3],0.625
same,binding signal,[4],0.651
AGTACG,binding signal,[1],0.879
same,binding signal,[5],0.894
same,binding signal,[2],0.913
same,binding signal,[3],0.854
same,binding signal,[4],0.996
GATCGA,binding signal,[1],0.841
same,binding signal,[5],0.768
same,binding signal,[2],0.853
same,binding signal,[3],0.783
same,binding signal,[4],0.842
TTGGAT,binding signal,[1],0.953
same,binding signal,[5],0.915
same,binding signal,[2],0.964
same,binding signal,[3],0.97
same,binding signal,[4],0.897
CGGCCC,binding signal,[1],1.03
same,binding signal,[5],0.877
same,binding signal,[2],0.983
same,binding signal,[3],0.935
same,binding signal,[4],0.926
TGTCGC,binding signal,[1],0.999
same,binding signal,[5],0.969
same,binding signal,[2],0.907
same,binding signal,[3],0.925
same,binding signal,[4],0.912
TGTGAT,binding signal,[1],0.974
same,binding signal,[5],0.982
same,binding signal,[2],0.973
same,binding signal,[3],1.09
same,binding signal,[4],0.956
GAAAGC,binding signal,[1],0.91
same,binding signal,[5],0.771
same,binding signal,[2],0.933
same,binding signal,[3],0.875
same,binding signal,[4],0.869
AGGATT,binding signal,[1],0.869
same,binding signal,[5],0.97
same,binding signal,[2],0.782
same,binding signal,[3],0.944
same,binding signal,[4],0.891
TAGGCC,binding signal,[1],0.911
same,binding signal,[5],0.959
same,binding signal,[2],0.988
same,binding signal,[3],0.92
same,binding signal,[4],0.89
GAAAGG,binding signal,[1],0.935
same,binding signal,[5],0.909
same,binding signal,[2],0.918
same,binding signal,[3],0.982
same,binding signal,[4],0.966
CCCAGA,binding signal,[1],0.787
same,binding signal,[5],0.843
same,binding signal,[2],0.894
same,binding signal,[3],0.93
same,binding signal,[4],0.889
TCGTCG,binding signal,[1],0.921
same,binding signal,[5],0.896
same,binding signal,[2],0.959
same,binding signal,[3],0.918
same,binding signal,[4],0.993
ACAGAA,binding signal,[1],0.94
same,binding signal,[5],0.868
same,binding signal,[2],0.987
same,binding signal,[3],0.987
same,binding signal,[4],0.899
CGCGTA,binding signal,[1],0.859
same,binding signal,[5],0.967
same,binding signal,[2],0.966
same,binding signal,[3],0.986
same,binding signal,[4],0.97
GGATTC,binding signal,[1],0.836
same,binding signal,[5],0.997
same,binding signal,[2],0.894
same,binding signal,[3],0.97
same,binding signal,[4],0.997
ATTAGA,binding signal,[1],0.885
same,binding signal,[5],0.89
same,binding signal,[2],0.935
same,binding signal,[3],0.862
same,binding signal,[4],0.887
AAGGGA,binding signal,[1],0.87
same,binding signal,[5],0.846
same,binding signal,[2],0.828
same,binding signal,[3],0.939
same,binding signal,[4],0.832
CTGAGG,binding signal,[1],0.841
same,binding signal,[5],0.771
same,binding signal,[2],0.781
same,binding signal,[3],0.815
same,binding signal,[4],0.854
TCATAG,binding signal,[1],0.984
same,binding signal,[5],0.899
same,binding signal,[2],0.816
same,binding signal,[3],0.926
same,binding signal,[4],0.9
GCTAGA,binding signal,[1],0.966
same,binding signal,[5],0.962
same,binding signal,[2],0.855
same,binding signal,[3],0.98
same,binding signal,[4],0.955
GTACCA,binding signal,[1],1.04
same,binding signal,[5],0.907
same,binding signal,[2],0.943
same,binding signal,[3],0.994
same,binding signal,[4],0.93
AGATCA,binding signal,[1],0.889
same,binding signal,[5],0.941
same,binding signal,[2],0.771
same,binding signal,[3],0.828
same,binding signal,[4],0.848
AAGGTC,binding signal,[1],0.922
same,binding signal,[5],0.932
same,binding signal,[2],0.898
same,binding signal,[3],0.915
same,binding signal,[4],0.938
AGGAAT,binding signal,[1],0.75
same,binding signal,[5],0.778
same,binding signal,[2],0.858
same,binding signal,[3],0.808
same,binding signal,[4],0.828
GGAATG,binding signal,[1],0.887
same,binding signal,[5],0.788
same,binding signal,[2],0.962
same,binding signal,[3],0.917
same,binding signal,[4],0.816
GCACAC,binding signal,[1],0.994
same,binding signal,[5],0.926
same,binding signal,[2],0.917
same,binding signal,[3],0.924
same,binding signal,[4],1.05
GACTTG,binding signal,[1],0.856
same,binding signal,[5],0.716
same,binding signal,[2],0.675
same,binding signal,[3],0.8
same,binding signal,[4],0.927
GACTAT,binding signal,[1],0.897
same,binding signal,[5],0.858
same,binding signal,[2],0.912
same,binding signal,[3],0.963
same,binding signal,[4],0.987
GTTCAG,binding signal,[1],0.936
same,binding signal,[5],0.833
same,binding signal,[2],0.91
same,binding signal,[3],0.89
same,binding signal,[4],0.922
AGGTTC,binding signal,[1],0.851
same,binding signal,[5],0.875
same,binding signal,[2],0.822
same,binding signal,[3],0.835
same,binding signal,[4],0.865
GCCATT,binding signal,[1],0.983
same,binding signal,[5],0.866
same,binding signal,[2],0.998
same,binding signal,[3],0.952
same,binding signal,[4],0.979

# No new results follow: an excerpt of the list.
sequence,measurement,setting,value
GAAAGC,binding signal,[2],0.933
same,binding signal,[3],0.875

# A second format for part of the listing above.
sequence	measurement	setting	value
CGGCCC	binding signal	[3]	0.935
TAGGCC	binding signal	[3]	0.92
TCATAG	binding signal	[2]	0.816
AAGGTC	binding signal	[1]	0.922

# Five entries drawn at random from the list so far:
sequence,measurement,setting,value
GAAAGG,binding signal,[2],0.918
TGGGAC,binding signal,[2],1
GCACAC,binding signal,[3],0.924
ACAGAA,binding signal,[4],0.899
GCCACC,binding signal,[5],0.965
